These are yes or no findings as the source states them, for the method shown. Binding seen in cells or lysates may run through a third protein. Some results given as binding are weak or reduced against the parent protein; the word gives no strength. Sequences can lack the tags named with a protein.
Experiments:
[1] = target: T1, HA-CRY1 WT stably expressed in NIH 3T3^HA-CRY1 cells (mouse) (UniProt P97784); assay: co-IP; anti-HA immunoprecipitation of HA-CRY1 from lysates of NIH 3T3^HA-CRY1 cells (buffer with increasing amounts of TritonX; plain NIH3T3 as control), blot with anti-TIM
T1 sequence: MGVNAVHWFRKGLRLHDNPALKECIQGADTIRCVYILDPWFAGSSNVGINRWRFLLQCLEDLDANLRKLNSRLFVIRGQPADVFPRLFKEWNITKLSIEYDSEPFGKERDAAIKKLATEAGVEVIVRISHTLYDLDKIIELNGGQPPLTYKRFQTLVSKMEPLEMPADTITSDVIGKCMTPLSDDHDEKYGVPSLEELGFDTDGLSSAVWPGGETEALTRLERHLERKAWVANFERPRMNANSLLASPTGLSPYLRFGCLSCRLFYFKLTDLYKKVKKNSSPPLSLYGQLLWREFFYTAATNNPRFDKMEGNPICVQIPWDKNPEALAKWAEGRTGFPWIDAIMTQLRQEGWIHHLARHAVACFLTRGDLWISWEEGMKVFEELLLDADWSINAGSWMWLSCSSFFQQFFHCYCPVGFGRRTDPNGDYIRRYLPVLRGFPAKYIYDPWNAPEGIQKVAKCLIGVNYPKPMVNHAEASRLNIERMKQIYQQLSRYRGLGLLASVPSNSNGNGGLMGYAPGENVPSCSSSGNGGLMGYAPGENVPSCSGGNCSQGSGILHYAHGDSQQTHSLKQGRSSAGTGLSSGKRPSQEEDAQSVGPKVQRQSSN

[2] = target: T2, HA-CRY1 WT (wild type), transiently expressed in COS7 (mouse) (UniProt P97784); assay: co-IP; COS7 transiently co-expressing HA-CRY1 WT and truncated GFP-tagged TIM proteins; IP anti-HA, blot anti-GFP
T2 sequence: T1 sequence

Flag-CHK1 = target: T3, Flag-CHK1 (UniProt O14757); assay: co-IP; cells transfected with Flag-CHK1 and TIM deletion constructs (HEK293 by the legend, COS7 by the text); IP anti-Flag, blot anti-V5 and anti-GFP
T3 sequence: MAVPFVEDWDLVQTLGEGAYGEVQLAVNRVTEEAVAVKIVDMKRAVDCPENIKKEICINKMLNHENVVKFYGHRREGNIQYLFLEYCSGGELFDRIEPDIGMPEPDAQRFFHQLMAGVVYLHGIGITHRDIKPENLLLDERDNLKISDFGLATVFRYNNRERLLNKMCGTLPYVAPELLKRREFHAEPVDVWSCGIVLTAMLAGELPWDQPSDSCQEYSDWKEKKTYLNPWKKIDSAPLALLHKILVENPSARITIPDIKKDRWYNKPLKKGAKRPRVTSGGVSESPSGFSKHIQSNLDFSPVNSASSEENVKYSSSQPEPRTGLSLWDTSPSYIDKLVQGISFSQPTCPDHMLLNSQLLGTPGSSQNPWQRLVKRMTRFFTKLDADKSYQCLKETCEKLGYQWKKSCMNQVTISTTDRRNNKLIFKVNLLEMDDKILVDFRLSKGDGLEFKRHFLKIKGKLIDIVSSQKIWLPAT

[3] = target: T4, l-TIM-V5, C-terminally V5 tagged full length mouse TIMELESS, TIM(1–1198)-V5 (mouse) (UniProt Q9R1X4); assay: co-IP; COS7 co-expressing all three of HA-CRY1 (WT or mutNLSc), l-TIM-V5 and PER2-GFP; IP of each with anti-HA, anti-V5 or anti-GFP, blots with the corresponding antibodies
T4 sequence: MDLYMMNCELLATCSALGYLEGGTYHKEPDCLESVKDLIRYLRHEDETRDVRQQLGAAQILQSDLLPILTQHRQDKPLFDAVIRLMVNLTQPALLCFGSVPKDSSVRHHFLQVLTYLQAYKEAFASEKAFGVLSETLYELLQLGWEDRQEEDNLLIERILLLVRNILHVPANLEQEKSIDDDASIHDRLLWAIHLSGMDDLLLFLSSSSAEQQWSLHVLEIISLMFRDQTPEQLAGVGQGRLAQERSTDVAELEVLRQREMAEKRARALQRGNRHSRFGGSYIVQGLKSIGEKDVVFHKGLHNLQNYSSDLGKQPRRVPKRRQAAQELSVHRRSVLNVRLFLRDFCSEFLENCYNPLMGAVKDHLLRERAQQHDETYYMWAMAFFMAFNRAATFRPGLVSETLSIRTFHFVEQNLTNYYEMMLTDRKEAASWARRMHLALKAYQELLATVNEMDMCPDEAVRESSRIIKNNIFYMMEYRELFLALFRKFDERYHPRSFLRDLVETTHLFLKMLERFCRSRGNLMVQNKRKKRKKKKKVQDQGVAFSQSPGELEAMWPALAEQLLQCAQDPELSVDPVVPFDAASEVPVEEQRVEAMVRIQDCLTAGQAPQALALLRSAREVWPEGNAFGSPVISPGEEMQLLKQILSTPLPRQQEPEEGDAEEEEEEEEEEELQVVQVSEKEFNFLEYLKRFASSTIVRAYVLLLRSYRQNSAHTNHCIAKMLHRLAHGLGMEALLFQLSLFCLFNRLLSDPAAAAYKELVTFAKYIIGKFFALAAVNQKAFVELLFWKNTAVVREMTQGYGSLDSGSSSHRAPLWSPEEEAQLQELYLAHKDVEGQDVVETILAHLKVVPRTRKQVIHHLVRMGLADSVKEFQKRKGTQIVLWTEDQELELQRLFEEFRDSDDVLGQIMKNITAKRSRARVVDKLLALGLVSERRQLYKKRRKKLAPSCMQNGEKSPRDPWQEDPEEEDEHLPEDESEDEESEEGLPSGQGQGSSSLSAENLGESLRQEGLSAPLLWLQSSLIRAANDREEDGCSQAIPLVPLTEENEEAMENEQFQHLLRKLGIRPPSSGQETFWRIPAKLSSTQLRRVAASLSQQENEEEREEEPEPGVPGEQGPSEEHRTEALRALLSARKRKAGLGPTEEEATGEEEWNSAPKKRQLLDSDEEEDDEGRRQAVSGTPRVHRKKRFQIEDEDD

[4] = target: T4, l-TIM-V5, C-terminally V5 tagged full length mouse TIMELESS, TIM(1–1198)-V5 (mouse); assay: co-IP; COS7 transiently co-expressing l-TIM-V5 and HA-CRY1 (wild type or mutant); IP anti-V5, blot anti-HA

B1: endogenous TIM of NIH 3T3 cells (protein, UniProt Q9R1X4 1-1197)
chain: T4 sequence
Q: With B1 as the binder, how does the binding [1] read?
A: binds

B2: TIM(1–1079)-GFP (domain or fragment, UniProt Q9R1X4 1-1079)
chain: MDLYMMNCELLATCSALGYLEGGTYHKEPDCLESVKDLIRYLRHEDETRDVRQQLGAAQILQSDLLPILTQHRQDKPLFDAVIRLMVNLTQPALLCFGSVPKDSSVRHHFLQVLTYLQAYKEAFASEKAFGVLSETLYELLQLGWEDRQEEDNLLIERILLLVRNILHVPANLEQEKSIDDDASIHDRLLWAIHLSGMDDLLLFLSSSSAEQQWSLHVLEIISLMFRDQTPEQLAGVGQGRLAQERSTDVAELEVLRQREMAEKRARALQRGNRHSRFGGSYIVQGLKSIGEKDVVFHKGLHNLQNYSSDLGKQPRRVPKRRQAAQELSVHRRSVLNVRLFLRDFCSEFLENCYNPLMGAVKDHLLRERAQQHDETYYMWAMAFFMAFNRAATFRPGLVSETLSIRTFHFVEQNLTNYYEMMLTDRKEAASWARRMHLALKAYQELLATVNEMDMCPDEAVRESSRIIKNNIFYMMEYRELFLALFRKFDERYHPRSFLRDLVETTHLFLKMLERFCRSRGNLMVQNKRKKRKKKKKVQDQGVAFSQSPGELEAMWPALAEQLLQCAQDPELSVDPVVPFDAASEVPVEEQRVEAMVRIQDCLTAGQAPQALALLRSAREVWPEGNAFGSPVISPGEEMQLLKQILSTPLPRQQEPEEGDAEEEEEEEEEEELQVVQVSEKEFNFLEYLKRFASSTIVRAYVLLLRSYRQNSAHTNHCIAKMLHRLAHGLGMEALLFQLSLFCLFNRLLSDPAAAAYKELVTFAKYIIGKFFALAAVNQKAFVELLFWKNTAVVREMTQGYGSLDSGSSSHRAPLWSPEEEAQLQELYLAHKDVEGQDVVETILAHLKVVPRTRKQVIHHLVRMGLADSVKEFQKRKGTQIVLWTEDQELELQRLFEEFRDSDDVLGQIMKNITAKRSRARVVDKLLALGLVSERRQLYKKRRKKLAPSCMQNGEKSPRDPWQEDPEEEDEHLPEDESEDEESEEGLPSGQGQGSSSLSAENLGESLRQEGLSAPLLWLQSSLIRAANDREEDGCSQAIPLVPLTEENEEAMENEQFQHLLRKLGIRPPSSGQETFWRI
Q: How did the binding [2] turn out when B2 was run?
A: binds

B3: TIM(1–309)-GFP (domain or fragment, UniProt Q9R1X4 1-309)
chain: MDLYMMNCELLATCSALGYLEGGTYHKEPDCLESVKDLIRYLRHEDETRDVRQQLGAAQILQSDLLPILTQHRQDKPLFDAVIRLMVNLTQPALLCFGSVPKDSSVRHHFLQVLTYLQAYKEAFASEKAFGVLSETLYELLQLGWEDRQEEDNLLIERILLLVRNILHVPANLEQEKSIDDDASIHDRLLWAIHLSGMDDLLLFLSSSSAEQQWSLHVLEIISLMFRDQTPEQLAGVGQGRLAQERSTDVAELEVLRQREMAEKRARALQRGNRHSRFGGSYIVQGLKSIGEKDVVFHKGLHNLQNYSS
Q: What does the source list for B3?
A: binding [2]: binds; binding (Flag-CHK1): binds

B4: HA-CRY1 WT (wild type), transiently expressed in COS7 (protein, UniProt P97784 1-606)
chain: T1 sequence
Q: For B4, which binding [3] is on record?
A: no binding (condition: with co-expressed PER2-GFP)

Q: What about the binding [4] of the same binder?
A: binds

B5: GFP-TIM(1079–1198) (domain or fragment, UniProt Q9R1X4 1079-1197)
chain: IPAKLSSTQLRRVAASLSQQENEEEREEEPEPGVPGEQGPSEEHRTEALRALLSARKRKAGLGPTEEEATGEEEWNSAPKKRQLLDSDEEEDDEGRRQAVSGTPRVHRKKRFQIEDEDD
Q: For B5, which binding [2] is on record?
A: no binding

Reference: article PMC3572085
